Measured values reported in the supplement of paper PMC6445147.
Values scatter widely in this assay.

B1: human tRNA-Pro; a variant is named by its letters at N, in order (parent)
chain: GGCTCGTTGGTCTAGNGGTATGATTCTCGCTTAGGGTGCGAGAGGTCCCGGGTTCNNATCCCGGACGAGCCC

How the values were obtained:
[1] = variants of: B1; assay: tRNA Pol-III promoter activity, log2 (circRNA frequency / plasmid DNA frequency) (log2 ratio); higher = stronger promoter activity; conditions: HEK293T; construct: no Pol-II promoter ((-)CMV library)
[2] = variants of: B1; assay: tRNA 3' processing efficiency (processed reads / all reads, maximum-likelihood estimate) (fraction); higher = more efficient 3' processing; conditions: HEK293T; construct: no Pol-II promoter ((-)CMV library)
[3] = variants of: B1; assay: tRNA 5' processing efficiency (processed reads / all reads, maximum-likelihood estimate) (fraction); higher = more efficient 5' processing; conditions: HEK293T; construct: CMV Pol-II promoter ((+)CMV library, decapped)

Variant | tRNA Pol-III promoter activity (log2) [1] | tRNA 3' processing efficiency [2] | tRNA 5' processing efficiency [3]
GTA T19A A58G T59G | 6.62 | 0.33 | –
GTA G50A | 7.2 | 0.33 | –
ATA T19C | 4.55 | 0.26 | –
ATA T19A | 3.87 | 0.19 | –
ATA T19G | 3.93 | 0.14 | –
GTA T19A T59A | 4.53 | 0.25 | –
TTA T8C A58T | 7.51 | 0.5 | –
GTA T53G T59A | 3.67 | 0.2 | –
GTA T8A G17C | 3.86 | 0.25 | –
GTA T8C A14T | 4.53 | 0.2 | –
TTA T54A | 3.51 | 0.17 | –
TTA T53G A58T | 6.51 | 0.17 | –
GTA T19G A58G | 1.84 | 0.25 | –
GTA T19G A58T | 3.38 | 0.23 | –
CTA G18T | 2.37 | 0.5 | –
CTA T19A A58C | 4.67 | 0.4 | –
GTA T19A A58T | 4.73 | 0.35 | –
GTA T19A A58C | 4.26 | 0.33 | –
GTA T19A A58G | 4.77 | 0.26 | –
TTA T19G | 3.35 | 0.42 | –
TTA T19A | 3.63 | 0.42 | –
GTA T8A A58T | 3.55 | 0.4 | –
GTA T19G | 1.3 | 0.33 | –

Variant | tRNA Pol-III promoter activity (log2) [1] | tRNA 3' processing efficiency [2] | tRNA 5' processing efficiency [3]
GTA T19A | 2.28 | 0.26 | 0.5
GTA T19C | 1.31 | 0.17 | 0.2
GTA T8C T54C | 3.72 | 0.17 | –
GTA G18C A20T | 3.61 | 0.75 | –
ATA G18A A20G | 5.94 | 0.25 | –
GTA T19A A20T A58C | 4.1 | 0.22 | –
GTA T19A A20T A58G | 7.1 | 0.11 | –
GTA T8G T19G A58G | 4.94 | 0.25 | –
GTA T8G G15C A58G | 6.1 | 0.11 | –
GTA T8C T19G C55G | 3.21 | 0.33 | –
TTA T53C | 3.74 | 0.57 | –
TTA T53A | 3.27 | 0.5 | –
TTA T19G A20T G35A | 3.71 | 0.25 | –
GTA G18A A20C | 4.71 | 0.75 | 0.25
GTA G18A A20T | 6.26 | 0.6 | –
GTA T53A T59C | 3.93 | 0.14 | –
GTA T53A T59G | 2.86 | 0.25 | –
ATA T53G T54C | 6.26 | 0.4 | –
ATA T19G A58G | 5.94 | 0.13 | –
GTA G34A | 7.25 | 0.5 | –
GTA G18T T53A | 6.26 | 0.4 | –
GTA T19G T59A | 4.44 | 0.6 | –
GTA T19G T59G | 5.33 | 0.57 | –

Given in markdown: entries from further up

| Variant | tRNA Pol-III promoter activity (log2) [1] | tRNA 3' processing efficiency [2] | tRNA 5' processing efficiency [3] |
| --- | --- | --- | --- |
| GTA T8C T54C | 3.72 | 0.17 | – |
| GTA G18C A20T | 3.61 | 0.75 | – |
| ATA G18A A20G | 5.94 | 0.25 | – |
| GTA T19A A20T A58C | 4.1 | 0.22 | – |
| GTA T19A A20T A58G | 7.1 | 0.11 | – |
| GTA T8G T19G A58G | 4.94 | 0.25 | – |
| GTA T8G G15C A58G | 6.1 | 0.11 | – |
| GTA T8C T19G C55G | 3.21 | 0.33 | – |
| TTA T53C | 3.74 | 0.57 | – |
| TTA T53A | 3.27 | 0.5 | – |
| TTA T19G A20T G35A | 3.71 | 0.25 | – |
| GTA G18A A20C | 4.71 | 0.75 | 0.25 |
| GTA G18A A20T | 6.26 | 0.6 | – |
| GTA T53A T59C | 3.93 | 0.14 | – |
| GTA T53A T59G | 2.86 | 0.25 | – |
| ATA T53G T54C | 6.26 | 0.4 | – |
| ATA T19G A58G | 5.94 | 0.13 | – |
| GTA G34A | 7.25 | 0.5 | – |
| GTA G18T T53A | 6.26 | 0.4 | – |
| GTA T19G T59A | 4.44 | 0.6 | – |
| GTA T19G T59G | 5.33 | 0.57 | – |

Next entries:

Variant | tRNA Pol-III promoter activity (log2) [1] | tRNA 3' processing efficiency [2] | tRNA 5' processing efficiency [3]
CTA T59A | 2.94 | 0.25 | –
GTA G18T | 0.149 | 0.22 | 0.5
GTA G18A | -0.101 | 0.37 | –
GTA G18C | 0.709 | 0.4 | –
ATA T54A | 3.36 | 0.4 | –
CTA T19A | 3.12 | 0.25 | –
CTA T19G | 3.04 | 0.57 | –
GTA G18T T59A | 2.3 | 0.67 | –
GTA T19A A20T C55G | 3.36 | 0.25 | –
GTA T8G A14G | 2.76 | 0.25 | –
GTA T8G A14T | 0.884 | 0.25 | –
GTA T19C A20G A58G | 4.67 | 0.2 | –
GTA T8G T59G | 1.77 | 0.25 | –
GTA T19G T53G | 5.03 | 0.33 | –
GTA T59A | 2.43 | 0.33 | –
GTA T59C | 2.83 | 0.43 | –
GTA T8C T19G | 3.3 | 0.33 | –
GTA T8C T19C | 5.94 | 0.7 | –
GTA T8C C55T | 5.87 | 0.04 | –
GTA T8C T59G | 3.24 | 0.17 | –
GTA T8C T59C | 6.05 | 0.15 | –
GTA T8G G15C | 3.25 | 0.2 | –
ATA T59C | 3.81 | 0.33 | –

Variant | tRNA Pol-III promoter activity (log2) [1] | tRNA 3' processing efficiency [2] | tRNA 5' processing efficiency [3]
ATA T59A | 4.82 | 0.18 | –
GTA T53C C55T | 3.28 | 0.14 | –
CTA T8G | 4.36 | 0.4 | –
GTA T19C A58T | 4.62 | 0.31 | –
GTA T19C A58G | 5.62 | 0.11 | 0.2
GTA G18A T19A A58G | 4.93 | 0.17 | –
TTA T19G A58G | 7.16 | 0.04 | –
TTA T19G A58T | 4.45 | 0.5 | –
GTA T8C | 0.786 | 0.37 | –
GTA T8G | -0.583 | 0.29 | –
GTA T8A | 0.524 | 0.32 | –
TTA G18A | 4.19 | 0.33 | –
GTA T8G G15C T53A C55T T59G | 4.68 | 0.4 | –
GTA T19C T54G | 4.77 | 0.4 | –
TTA T19G T59G | 5.93 | 0.25 | –
ATA T53G | 3.25 | 0.22 | –
ATA T53A | 2.93 | 0.17 | –
GTA T19A A20T | 7.08 | 0.28 | –
GTA T19A A20C | 4.38 | 0.18 | –
GTA T19A A20G | 5.76 | 0.49 | –
GTA T19C T59C | 4.03 | 0.25 | –
GTA T8C G9A A58G | 8.94 | 0.27 | –
GTA T53C A58T | 4.14 | 0.79 | –

Variant | tRNA Pol-III promoter activity (log2) [1] | tRNA 3' processing efficiency [2] | tRNA 5' processing efficiency [3]
GTA T8C A58T | 4.57 | 0.25 | –
GTA T8C A58G | 3.77 | 0.27 | –
GTA T8C A58C | 4.03 | 0.17 | –
GTA T53A | 1.82 | 0.13 | –
GTA T53G | 1.37 | 0.51 | –
GTA T53C | 3 | 0.86 | 0.17
GTA T8G A20G | 1.62 | 0.4 | –
GTA G18T T19C A58T | 5.16 | 0.14 | –
TTA T59C | 5.2 | 0.25 | –
TTA T59A | 6.08 | 0.88 | –
GTA G18A A58C | 2.67 | 0.2 | –
GTA G18A A58T | 3.24 | 0.5 | –
GTA T8G G17T | 2.66 | 0.2 | –
GTA T8C G15C | 2.12 | 0.25 | –
GTA T8A A20G | 3.62 | 0.25 | –
GTA T19A A20C A58T | 3.36 | 0.33 | –
GTA T54A | -0.357 | 0.45 | –
GTA T54G | -0.865 | 0.5 | –
GTA T8G G15A A20T A58C | 3.62 | 0.25 | –
ATA T53G A58G | 5.51 | 0.33 | –
CTA T53G | 3.44 | 0.2 | –
CTA T54A T59A | 5.26 | 0.2 | –
